PubChem BioAssay AID504774, Drosophila RNAi Screening Center | 2011
Test: 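Fly genes whose loss alters survival after alkylation damage to DNA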 (primary screen). System: Drosophila Kc167 cells. Knock-down reagent: long dsRNA against Drosophila genes, about 0.25 µg dsRNA per well. Duration: about 6 days: 3 days knock-down, then 3 days with or without MMS. Challenge: methyl methanesulphonate 0.004% (w/v) for 3 days after knock-down. Measurement: 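ATP-dependent luminescence as a measure of live cells in MMS-exposed wells, quantile normalised within each plate, with replicate values also given as a mean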. Scale: mean viability with MMS and viability with MMS: higher = more surviving cells after MMS.
In all, the deposit lists about 23,000 reagents; below is an unselected part of those with a known target gene and a result. 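Values are quantile-normalised luminescence on an arbitrary scale; higher means more cells surviving MMS.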 Reagents against one gene are numbered here. Not all columns of the deposit are shown. Reagent sequences are not shown.

Knock-down of CG14036 resulted in: mean viability with MMS 3.55e6; viability with MMS, replicate 1 = 4.07e6.
With knock-down of boil, the screen gave mean viability with MMS 3.56e6; viability with MMS, replicate 1 = 4.04e6.
Against eIF3b, the values are mean viability with MMS 3.08e6; viability with MMS, replicate 1 = 3.56e6.
After knock-down of hpo, the record shows mean viability with MMS 3.57e6; viability with MMS, replicate 1 = 4.05e6.
Silencing of barr gave: mean viability with MMS 3.31e6; viability with MMS, replicate 1 = 3.74e6.
With knock-down of velo #1, the record shows mean viability with MMS 2.91e6; viability with MMS, replicate 1 = 3.58e6.
Depletion of velo #2 gave: mean viability with MMS 3.05e6; viability with MMS, replicate 1 = 3.63e6.
Hr96 gave mean viability with MMS 3.53e6; viability with MMS, replicate 1 = 3.95e6.
Crag showed mean viability with MMS 3.53e6; viability with MMS, replicate 1 = 4.20e6.

Reprinted from above (2 entries):
barr: mean viability with MMS = 3.31e6; viability with MMS, replicate 1 = 3.74e6
velo #1: mean viability with MMS = 2.91e6; viability with MMS, replicate 1 = 3.58e6

Additional reagents follow.
AspRS-m gave mean viability with MMS 3.66e6; viability with MMS, replicate 1 = 4.21e6.
Silencing of Or65a resulted in: mean viability with MMS 3.52e6; viability with MMS, replicate 1 = 4.06e6.
Against CG17712 the deposit lists mean viability with MMS 3.57e6; viability with MMS, replicate 1 = 4.09e6.
Against E2f2, the values are mean viability with MMS 3.63e6; viability with MMS, replicate 1 = 4.19e6.
For Ras85D, the values are mean viability with MMS 3.40e6; viability with MMS, replicate 1 = 3.91e6.
